Results: patent US20140315301A1
Results are given in words; binding and its absence hold for the method and conditions named. Binding seen in cells or lysates may run through a third protein. Some results given as binding are weak or reduced against the parent protein; the word gives no strength.

By UniProt entry, the sequences of proteins in these tests, tags left out.
UniProt P20263: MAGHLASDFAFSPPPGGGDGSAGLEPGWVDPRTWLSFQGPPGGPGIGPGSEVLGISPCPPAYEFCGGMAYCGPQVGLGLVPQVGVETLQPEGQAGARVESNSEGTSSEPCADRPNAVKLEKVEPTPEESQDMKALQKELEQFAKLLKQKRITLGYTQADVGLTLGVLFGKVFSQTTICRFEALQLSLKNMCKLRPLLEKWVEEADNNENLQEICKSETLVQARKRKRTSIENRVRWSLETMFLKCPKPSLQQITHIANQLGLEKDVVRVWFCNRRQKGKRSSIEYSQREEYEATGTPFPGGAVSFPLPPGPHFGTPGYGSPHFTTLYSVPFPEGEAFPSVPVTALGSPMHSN

Biological target: endogenously labeled Flag-tagged Oct4 in murine V6.5 ESCs (mouse) (UniProt P20263)
Experiment: co-IP of endogenously Flag-tagged Oct4 from murine V6.5 ESCs in 2i/LIF, immunoblot

B1: Nanog, endogenous, in murine V6.5 ESCs (protein, mouse, UniProt Q80Z64 1-305, looked up)
chain: MSVGLPGPHSLPSSEEASNSGNASSMPAVFHPENYSCLQGSATEMLCTEAASPRPSSEDLPLQGSPDSSTSPKQKLSSPEADKGPEEEENKVLARKQKMRTVFSQAQLCALKDRFQKQKYLSLQQMQELSSILNLSYKQVKTWFQNQRMKCKRWQKNQWLKTSNGLIQKGSAPVEYPSIHCSYPQGYLVNASGSLSMWGSQTWTNPTWSSQTWTNPTWNNQTWTNPTWSSQAWTAQSWNGQPWNAAPLHNFGEDFLQPYVQLQQNFSASDLEVNLEATRESHAHFSTPQALELFLNYSVTPPGEI
binding: binds
